{"sequences": {"note": "The chains behind the UniProt entries cited, without tags or fusion partners.", "UniProt P09874": "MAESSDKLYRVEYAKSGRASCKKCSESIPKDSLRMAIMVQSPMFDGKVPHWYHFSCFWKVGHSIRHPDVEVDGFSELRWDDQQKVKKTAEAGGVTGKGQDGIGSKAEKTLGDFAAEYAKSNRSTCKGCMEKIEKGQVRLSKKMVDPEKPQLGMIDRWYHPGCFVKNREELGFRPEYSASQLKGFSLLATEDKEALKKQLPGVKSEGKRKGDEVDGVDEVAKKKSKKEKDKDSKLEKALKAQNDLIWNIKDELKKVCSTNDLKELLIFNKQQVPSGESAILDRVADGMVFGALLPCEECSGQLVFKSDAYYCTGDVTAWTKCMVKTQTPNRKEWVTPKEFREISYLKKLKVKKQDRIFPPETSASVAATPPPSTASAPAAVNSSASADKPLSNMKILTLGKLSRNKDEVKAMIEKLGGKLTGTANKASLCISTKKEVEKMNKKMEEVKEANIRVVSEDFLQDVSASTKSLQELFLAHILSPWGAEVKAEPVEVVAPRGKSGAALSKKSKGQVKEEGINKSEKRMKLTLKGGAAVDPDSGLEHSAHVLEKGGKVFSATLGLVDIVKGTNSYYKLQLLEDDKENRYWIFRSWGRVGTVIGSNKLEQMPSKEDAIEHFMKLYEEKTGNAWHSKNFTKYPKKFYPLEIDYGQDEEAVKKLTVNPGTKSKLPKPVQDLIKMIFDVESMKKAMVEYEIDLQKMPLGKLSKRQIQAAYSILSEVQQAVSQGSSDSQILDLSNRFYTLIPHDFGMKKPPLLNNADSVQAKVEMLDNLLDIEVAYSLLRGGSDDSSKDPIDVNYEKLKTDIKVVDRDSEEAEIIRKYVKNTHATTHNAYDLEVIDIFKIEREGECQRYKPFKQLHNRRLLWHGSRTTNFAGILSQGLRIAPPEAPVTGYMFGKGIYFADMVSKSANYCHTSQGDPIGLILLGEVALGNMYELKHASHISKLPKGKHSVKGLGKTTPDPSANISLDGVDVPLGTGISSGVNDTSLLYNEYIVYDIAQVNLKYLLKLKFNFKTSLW"}, "source": "paper PMC7012618", "key": {"[1]": {"biological_target": "GFP-Kif2C (human, WT) (human) (UniProt Q99661)", "experiment": "co-IP; GFP-Kif2C (WT or deletion mutants) expressed in HeLa cells with doxorubicin treatment; IP with anti-GFP or control (blank) beads; immunoblotting"}, "[2]": {"biological_target": "MBP-Kif2C (human Kif2C expressed with MBP-tag) (human) (UniProt Q99661)", "experiment": "pull-down; MBP Kif2C (WT or segments) on amylose beads incubated in HeLa cell lysates for 1 hr at room temperature, washed five times, immunoblotted; cells with or without doxorubicin (2 μg/mL); lysates with or without DNase I (100 units/mL); control with blank beads; only the target purified"}}, "note": "These are yes or no findings as the source states them, for the method shown. In cells and extracts the contact can be indirect. Some results given as binding are weak or reduced against the parent protein; the word gives no strength. Where a sequence is shown, tags or fusion partners need not be part of it.", "data": [{"substance": "Ku70/Ku80 (from UniProt P12956 1-609; P13010 1-732) (complex)", "values": [{"measurement": "binding", "setting": "[1]", "result": "binds"}, {"measurement": "binding", "setting": "[2]", "result": "binds"}]}, {"substance": "PARP1 (from UniProt P09874 1-1014)", "values": [{"measurement": "binding", "setting": "[1]", "result": "binds"}, {"measurement": "binding", "setting": "[2]", "result": "binds"}]}]}
